{"source": "patent US7208162B2", "about": "“Combination therapy of respiratory diseases using antibodies and anti-inflammatory agents” (priority 2000, dated 2007)", "system": "respiratory syncytial virus (RSV/Long)", "experiment": "Example 3: different steroids with the same antibody in RSV pneumonia, arithmetic mean pathology scores", "type": "in vivo", "conditions": "0.6 or 1.2 mg/kg i.p. daily days 3-5 plus antibody 15 mg/kg day 3; day 6", "description": "The following procedure was performed using inbred cotton rats (Sigmodon hispidus). On day 0, young adult cotton rats were divided into 8 groups of 4 animals each (total: 32 animals). Identification of each group in terms of treatment was as follows:\nIn each case (Groups B–H), approximately 10^6.5 plaque forming units (pfu) of respiratory syncytial virus (RSV/Long) was administered intranasally in a volume of 100 μl.\nOn day 3, treatment began as described above for each of the groups. The animals were each weighed and treated according to the indicated regimen. Antibody was palivizumab wherein 15 mg/kg was the dose used in each case. All dosages are given as mg per kg of body weight.\nOn day 4, animals in groups D through H were treated as described for day 3 but no additional antibody was given.\nOn day 5, animals in groups D through H were treated as on […] (again with no additional antibody).\nOn day 6, all animals were sacrificed. Lungs from all of the animals were inflated with formalin for histological examination.", "note": "For at least one compound, name, drawing or mass did not settle the structure."}
{"smiles": "C[C@@H]1C[C@H]2[C@@H]3CCC4=CC(=O)C=C[C@]4(C)[C@@]3(F)[C@@H](O)C[C@]2(C)[C@@]1(O)C(=O)CO", "note": "[dexamethasone]", "values": [{"measurement": "pulmonary pathology (arithmetic mean pathology scores) compared with triamcinolone", "result": "neither dose of dexamethasone worked as well"}, {"measurement": "pulmonary pathology compared to untreated animals", "result": "did reduce pulmonary pathology compared to untreated animals"}]}
